This note sets out measurements from PubChem BioAssay AID493014 (National Center for Advancing Translational Sciences (NCATS), 2011).

Broadly, the AC50 is the midpoint of the concentration-response curve, whichever way the signal moves.

The other results are listed elsewhere or left out. These are further read-outs of the screen, such as a control signal, another cell line or another target. No call is given for them. The list favours compounds with an active or inconclusive main result. Words in brackets tell the shape of the fitted curve; partial curves, single points and poor fits give uncertain potencies.

This assay in a line: qHTS Assay to Find Inhibitors of Chronic Active B-Cell Receptor Signaling. The note with it: ABC-DLBCL IkBa-CBG/CBR reporter, luminescence ratio (green luciferase fused to IkBa over red control in TMD8 lymphoma cells), 4 h. The method, boiled down:
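Concentration-response series (up to 46 uM) were applied to TMD8 dual-reporter cells for 4 h at 37C with doxycycline. Green/red ratio, after filter-overlap correction, defined %Activity; red signal alone was normalised to basal cells and zero luminescence.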
For orientation: In qHTS, concentration-response curves come from the screen itself.

[1] abbreviates: measured here: CBR red luminescence, cell number.
[2] abbreviates: measured here: IkBa-CBG green luminescence.

For the compound `COc1cccc(-c2nc3ccccc3c(=O)o2)c1`, under setting [1], the AC50 is 2.06 µM [falling, full curve].

Turning to `Oc1ccc(Cl)cc1C1=NNC(c2cccs2)C1` (stereo not drawn), the AC50 under setting [1] was 0.0891 µM [rising, full curve, poor fit].

For the compound `N#CC1=C(C2CC2)CC(c2ccccc2)C(C#N)=C1N` (stereo not drawn), under setting [1], the AC50 is 2.82 µM [rising, full curve].

Take `CCN(CC(=O)Nc1ccc(C(=O)Nc2ccc(OC)cc2)cc1)Cc1nc2ccccc2c(=O)[nH]1`: the concentration at half-maximal activity (AC50) under setting [1] was 1 µM [rising, full curve, poor fit].

On to `CN(Cc1ccccc1)C(=O)c1cc2cc(F)ccc2[nH]1`, for which, under setting [1], the AC50 is 0.794 µM [rising, full curve, poor fit].

For the compound `Cc1cc(NC(=O)CCS(=O)(=O)c2nc(-c3ccccc3)cc(C(F)(F)F)n2)no1`, the AC50 under setting [1] is 5.8 µM [falling, full curve, poor fit].

For `O=C(Nc1cccc2ncccc12)c1cc2ccccc2o1`, the AC50 under setting [1] is 12.6 µM [falling, partial curve, poor fit].

With `c1ccc(Nc2nc(-c3ccncc3)cs2)nc1`, under setting [1], the AC50 is 0.651 µM [falling, partial curve, poor fit].

Take `CC1(c2ccccc2Cl)NC(=O)N(CC(=O)Nc2ccc(N3CCCCC3)cc2)C1=O` (stereo not drawn): the AC50 under setting [1] was 4.11 µM [rising, partial curve].

Turning to `O=C(Nc1ccc([N+](=O)[O-])cc1)Nc1ccc2[nH]c(=O)[nH]c2c1`, the AC50 under setting [1] is 12.6 µM [rising, partial curve, poor fit].

Consider `CCOc1ccc(N(CC(=O)Nc2ccccc2OC)S(=O)(=O)c2ccccc2)cc1`, for which the AC50 under setting [2] was 8.91 µM [falling, partial curve].

Take `CCc1cccc(NC(=O)C2CCCC2)c1`: under setting [1], the AC50 is 25.9 µM [rising, single point].

For the compound `Cc1oc(-c2ccc(-c3ccccc3)cc2)nc1CN(C)C1CCOC1` (stereo not drawn), the AC50 under setting [1] was 0.251 µM [falling, full curve].

Turning to `CCOCCCNC(=S)N(CCO)Cc1cc2cc3c(cc2[nH]c1=O)OCCO3`, the AC50 under setting [1] is 20 µM [falling, partial curve, poor fit].

In the case of `CN1/C(=C\C(=O)c2cccs2)Sc2ccccc21`, the AC50 under setting [1] is 35.5 µM [falling, single point].

For the compound `Cc1c(NC(=O)c2cc(Br)ccc2Cl)cccc1-n1cnnn1`, the AC50 under setting [1] was 1.16 µM [rising, single point].

Turning to `Cc1ccc(C(=O)NC(=S)N2CCN(c3ccccc3F)CC2)cc1`, the AC50 under setting [1] was 3.26 µM [rising, full curve, poor fit].

Consider `COc1cc(/C=C(/C#N)C(=O)Nc2ccccc2)ccc1OCc1ccc(C(=O)O)cc1`, for which the AC50 under setting [1] is 10 µM [falling, partial curve].

On to `CCCNC(=O)COCc1cc(-c2ccc(F)cc2)on1`, for which the AC50 under setting [1] was 17.8 µM [falling, single point].

For the compound `Cc1ccc(SCC(=O)OCc2csc(CC(=O)Nc3ccccc3C)n2)cc1C`, the AC50 under setting [1] is 13 µM [falling, partial curve, poor fit].

Take `COc1cc2[nH]c(C(=O)N3CCN(c4ccc(F)cc4)CC3)cc2c(OC)c1OC`: under setting [1], the half-maximal activity concentration (AC50) was 6.31 µM [rising, single point].

For `COc1ccc(C(=O)CCS(=O)(=O)c2ccc(C)cc2)cc1`, the AC50 under setting [1] is 35.5 µM [falling, single point].

As for `COc1ccc(S(=O)(=O)Nc2cc(Sc3ncn[nH]3)c(O)c3ccccc23)cc1`, the AC50 is 2.59 µM [falling, full curve] under setting [1] and 5.17 µM [rising, full curve, poor fit] under setting [2].

In the case of `CC(NC(=O)CCCN1C(=O)c2ccccc2C1=O)c1ccc2c(c1)CCCC2` (stereo not drawn), the concentration at half-maximal activity (AC50) under setting [1] was 2.31 µM [rising, full curve, poor fit].

On to `O=C(NCCc1ccccc1)c1cc2ccccc2oc1=O`, for which the AC50 under setting [1] was 6.31 µM [falling, full curve].

As to `COc1ccc(/C=N/NC(=S)Nc2ccccc2)cc1COc1ccc(F)cc1`, under setting [1], the AC50 was 9.2 µM [rising, partial curve, poor fit].

For the compound `N#CC1=C(SCC(=O)NC23CC4CC(CC(C4)C2)C3)NC(=O)C(C#N)C12CCCCC2` (stereo not drawn), the AC50 under setting [1] is 20.6 µM [falling, single point].

Regarding `COc1ccc(C2NC(=S)N3C(c4ccc(OC)cc4)NC(=S)N23)cc1` (stereo not drawn), under setting [1], the AC50 is 0.00411 µM [rising, full curve, poor fit].

`O=S(=O)(N/N=C\c1cccnc1)c1ccccc1`: under setting [1], the AC50 is 29.1 µM [falling, single point].

`Cc1ccn2c(Nc3ccccc3)c(-c3ccccn3)nc2c1`: the AC50 under setting [1] is 35.5 µM [falling, single point].

For `c1ccc(CNc2ncnc3c2cnn3Cc2ccccc2)cc1`, the AC50 under setting [1] was 9.2 µM [rising, partial curve, poor fit].

For `COc1ccc(/C=N/Nc2ccc(C(=O)O)cc2)cc1OC`, the AC50 under setting [1] was 0.0178 µM [falling, partial curve, poor fit].

For the compound `CCOC(=O)c1c(C)[nH]c(C(=O)OCC(=O)Nc2ccc(OC)c(Cl)c2)c1C`, the AC50 under setting [1] is 2.31 µM [rising, partial curve, poor fit].

As to `Nc1ccc(Sc2nnnn2-c2ccccc2)c(Cl)c1`, under setting [1], the AC50 is 29.1 µM [falling, single point].

On to `COC(=O)c1ccc(NC(=O)CN(c2ccc(C)cc2)S(=O)(=O)c2c(C)nn(C)c2C)cc1`, for which the AC50 under setting [1] is 0.411 µM [falling, partial curve, poor fit].

With `CC(C)(C)NC(=O)C(=O)NNC(=O)c1cccc(Br)c1`, the AC50 under setting [1] is 35.5 µM [falling, single point].

Turning to `Cc1ccc(C(=O)Nc2cccc(N(C)S(C)(=O)=O)c2)cc1S(=O)(=O)Nc1ccccc1`, under setting [1], the AC50 was 25.1 µM [falling, single point].

Take `CCOC(=O)C1CCN(C(=O)c2ccc(N3CCOCC3)c([N+](=O)[O-])c2)CC1`: the AC50 under setting [1] is 1.3 µM [falling, partial curve, poor fit].

As for `Cc1ccccc1NC(=S)c1ccc2ccccc2n1`, the AC50 by setting is: under setting [1], 35.5 µM [rising, single point]; under setting [2], 35.5 µM [falling, partial curve, poor fit].

Consider `O=C(NC1CCCCCC1)c1cccs1`, for which the AC50 under setting [1] was 10 µM [falling, partial curve, poor fit].

As to `CCCN1Cc2cccc(C(=O)NCCc3ccccc3)c2C1=O`, the AC50 under setting [1] was 3.55 µM [rising, partial curve, poor fit].
